Counter-ions that a name gives are not always drawn. Some of the results follow. The numbers are fractions of the control, whatever unit the source prints. Most values lie at the level of the controls, where differences are scatter.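 MIN6 is a mouse insulinoma beta-cell line that stably carries a lentiviral reporter in which the Pdx1 and Ins1 promoters each drive a nucleus-targeted fluorescent protein; cells were counted by automated imaging with a Hoechst nuclear stain. In the screen, a drug was a possible hit when its Ins1 promoter readout lay beyond two median absolute deviations from the DMSO controls while Pdx1 activity stayed near normal.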
Each compound was assayed on MIN6 (assay: % Pdx1+ Ins1+ (double-positive, mature) cells relative to DMSO control (fold of DMSO control); higher = more mature Ins1 promoter-active cells). Conditions: 8.5 µM; 48 h; glucose 5 mM.

| Structure (SMILES) | % Pdx1+ Ins1+ |
| --- | --- |
| CNC[C@H](O)[C@@H](O)[C@H](O)[C@H](O)CO [Meglumine] | 0.886 |
| Nc1ccc(S(=O)(=O)Nc2cnc3ccccc3n2)cc1 [Sulfaquinoxaline sodium salt] | 0.836 |
| C[C@H]1NC(=O)NC1=O [Methylhydantoin-5-(D)] | 1.05 |
| Cc1ccnc(NS(=O)(=O)c2ccc(N)cc2)n1 [Sulfamerazine] | 0.772 |
| N=C(N)NCc1cccc(I)c1 [Iobenguane sulfate] | 0.769 |
| COc1ccc(C[C@H](N)C(=O)N[C@H]2[C@@H](O)[C@H](n3cnc4c(N(C)C)ncnc43)O[C@@H]2CO)cc1 [Puromycin dihydrochloride] | 0.279 |
| CC(C)n1c(/C=C/C(O)CC(O)CC(=O)O)c(-c2ccc(F)cc2)c2ccccc21 (stereo not given) [Fluvastatin sodium salt] | 0.897 |
| CC(=O)Oc1ccccc1C(=O)Oc1ccccc1C(=O)O [Acetylsalicylsalicylic acid] | 1.08 |
| CCCCNc1cc(C(=O)O)cc(S(N)(=O)=O)c1Oc1ccccc1 [Bumetanide] | 1.04 |
| CNC(=O)c1c(I)c(C(=O)NCC(=O)Nc2c(I)c(C(=O)O)c(I)c(C(=O)NCCO)c2I)c(I)c(N(C)C(C)=O)c1I [Ioxaglic acid] | 0.985 |
| CC[C@H](C)C(=O)O[C@H]1C[C@@H](C)C=C2C=C[C@H](C)[C@H](CC[C@@H]3C[C@@H](O)CC(=O)O3)[C@H]21 [Lovastatin] | 0.883 |
| Cc1c(C)c2c(c(C)c1O)CCC(C)(C(=O)O)O2 (stereo not given) [Trolox] | 0.926 |
| CC(C)=CCC/C(C)=C/CC/C(C)=C/CC/C(C)=C/CC/C(C)=C/CC/C(C)=C/CC1=C(C)C(=O)c2ccccc2C1=O [Vitamin K2] | 0.888 |
| CCN(CC)CCOC(=O)c1ccc(N)cc1 [Procaine hydrochloride] | 1.05 |
| CC(=O)O[C@H]1C[C@@]2(C)[C@@H](C[C@@H](O)[C@H]3[C@@]4(C)CC[C@@H](O)[C@@H](C)[C@@H]4CC[C@@]32C)/C1=C(\CCC=C(C)C)C(=O)O [Fusidic acid sodium salt] | 1.05 |
| CN(C)CCn1nnnc1SCC1=C(C(=O)O)N2C(=O)[C@@H](NC(=O)Cc3csc(N)n3)[C@H]2SC1 [Cefotiam hydrochloride] | 0.774 |
| CC(=O)O[C@]1(C(C)=O)CC[C@H]2[C@@H]3C=C(C)C4=CC(=O)CC[C@@H]4[C@H]3CC[C@@]21C [Nomegestrol acetate] | 1.02 |
| NS(=O)(=O)c1cc2c(cc1Cl)N=C(CSCc1ccccc1)NS2(=O)=O [Benzthiazide] | 0.937 |
| O=C1C(CC[S+]([O-])c2ccccc2)C(=O)N(c2ccccc2)N1c1ccccc1 (stereo not given) [Sulfinpyrazone] | 1.11 |
| C[C@]12C=CC(=O)C=C1CC[C@@H]1[C@@H]2[C@@H](O)C[C@@]2(C)[C@H]1CC[C@]2(O)C(=O)CO [Prednisolone] | 1.05 |
| CS(=O)(=O)c1ccc([C@@H](O)[C@@H](CO)NC(=O)C(Cl)Cl)cc1 [Thiamphenicol] | 0.955 |
| CC(C)Cc1ccc([C@H](C)C(=O)O)cc1 [S-(+)-ibuprofen] | 1.11 |
| CC(=O)Oc1cc(C(F)(F)F)ccc1C(=O)O [Triflusal] | 0.959 |
| O=C(O)Cc1ccccc1Nc1c(Cl)cccc1Cl [Diclofenac sodium] | 1.04 |

| Structure (SMILES) | % Pdx1+ Ins1+ |
| --- | --- |
| CN1CCN(CCCN2c3ccccc3Sc3ccc(S(=O)(=O)N(C)C)cc32)CC1 [Thioproperazine dimesylate] | 1.02 |
| COC(=O)C1=C(C)NC(C)=C(C(=O)OC)C1c1ccccc1[N+](=O)[O-] [Nifedipine] | 1.19 |
| Cc1cc(NC(=O)C2=C(O)c3ccccc3S(=O)(=O)N2C)no1 [Isoxicam] | 1.13 |
| Cc1cc(C(C)(C)CC(C)(C)C)ccc1OCCOCC[N+](C)(C)Cc1ccccc1 [Methyl benzethonium chloride] | 0.0827 |
| CN(C)CCCN1c2ccccc2CCc2ccc(Cl)cc21 [Clomipramine hydrochloride] | 0.927 |
| CO[C@@]1(NC(=O)C2SC(=C(C(N)=O)C(=O)O)S2)C(=O)N2C(C(=O)O)=C(CSc3nnnn3C)CS[C@@H]21 (stereo not given in full) [Cefotetan] | 0.982 |
| CCN(CC)CCOC(=O)C1(c2ccc([N+](=O)[O-])cc2)CCCC1 [Nitrocaramiphen hydrochloride] | 0.932 |
| Clc1ccccc1CN1CCc2sccc2C1 [Ticlopidine hydrochloride] | 1.04 |
| Nc1ccc(O)c(C(=O)O)c1 [Mesalamine] | 0.909 |
| Nc1ccc(S(=O)(=O)Nc2ncccn2)cc1 [Sulfadiazine] | 0.95 |
| C#C[C@]1(OC(C)=O)CC[C@H]2[C@@H]3CCC4=C[C@@H](OC(C)=O)CC[C@@H]4[C@H]3CC[C@@]21C [Ethynodiol diacetate] | 0.974 |
| C#C[C@]1(O)CC[C@H]2[C@@H]3CCC4=CC(=O)CC[C@@H]4[C@H]3CC[C@@]21C [Norethindrone] | 1.06 |
| CO[C@@]1(NC(=O)C(C(=O)O)c2ccc(O)cc2)C(=O)N2C(C(=O)O)=C(CSc3nnnn3C)CO[C@@H]21 (stereo not given in full) [Moxalactam disodium salt] | 0.981 |
| CCCCCCCCCCCCCCCC[N+](C)(C)CCN(Cc1ccc(OC)cc1)c1ncccn1 [Thonzonium bromide] | 0.0576 |
| CCN(CC)CCCC(C)Nc1c2ccc(Cl)cc2nc2ccc(OC)cc12 (stereo not given) [Quinacrine dihydrochloride dihydrate] | 0.465 |
| CC(=O)N1CCN(c2ccc(OCC3COC(Cn4ccnc4)(c4ccc(Cl)cc4Cl)O3)cc2)CC1 (stereo not given) [Ketoconazole] | 1 |
| C#C[C@]1(O)CC[C@H]2[C@@H]3CCc4cc(OC)ccc4[C@H]3CC[C@@]21C [Ethynylestradiol 3-methyl ether] | 0.982 |
| CC(C)NCC(O)c1ccc(NS(C)(=O)=O)cc1 (stereo not given) [Sotalol hydrochloride] | 1.06 |
| CCOC(=O)Nc1ccc2c(c1)N(C(=O)CCN1CCOCC1)c1ccccc1S2 [Moricizine hydrochloride] | 0.951 |
| COc1cc2c(cc1OC)-c1cc3ccc(OC)c(OC)c3c[n+]1CC2 [Palmatine chloride] | 0.926 |
| COC(=O)[C@H]1[C@H]2C[C@@H]3c4[nH]c5cc(OC)ccc5c4CCN3C[C@H]2C[C@@H](OC(=O)c2cc(OC)c(OC)c(OC)c2)[C@@H]1OC [Reserpine] | 0.965 |
| CNC(=C[N+](=O)[O-])NCCSCc1ccc(CN(C)C)o1 [Ranitidine hydrochloride] | 1.01 |
| CNCCC=C1c2ccccc2CCc2ccccc21 [Nortriptyline hydrochloride] | 0.811 |
| C[C@H]1[C@H](NC(=O)/C(=N\OC(C)(C)C(=O)O)c2csc(N)n2)C(=O)N1S(=O)(=O)O [Aztreonam] | 1.03 |

16 neighbouring entries from above:

| Structure (SMILES) | % Pdx1+ Ins1+ |
| --- | --- |
| Cc1cc(C(C)(C)CC(C)(C)C)ccc1OCCOCC[N+](C)(C)Cc1ccccc1 [Methyl benzethonium chloride] | 0.0827 |
| CN(C)CCCN1c2ccccc2CCc2ccc(Cl)cc21 [Clomipramine hydrochloride] | 0.927 |
| CO[C@@]1(NC(=O)C2SC(=C(C(N)=O)C(=O)O)S2)C(=O)N2C(C(=O)O)=C(CSc3nnnn3C)CS[C@@H]21 (stereo not given in full) [Cefotetan] | 0.982 |
| CCN(CC)CCOC(=O)C1(c2ccc([N+](=O)[O-])cc2)CCCC1 [Nitrocaramiphen hydrochloride] | 0.932 |
| Clc1ccccc1CN1CCc2sccc2C1 [Ticlopidine hydrochloride] | 1.04 |
| Nc1ccc(O)c(C(=O)O)c1 [Mesalamine] | 0.909 |
| Nc1ccc(S(=O)(=O)Nc2ncccn2)cc1 [Sulfadiazine] | 0.95 |
| C#C[C@]1(OC(C)=O)CC[C@H]2[C@@H]3CCC4=C[C@@H](OC(C)=O)CC[C@@H]4[C@H]3CC[C@@]21C [Ethynodiol diacetate] | 0.974 |
| C#C[C@]1(O)CC[C@H]2[C@@H]3CCC4=CC(=O)CC[C@@H]4[C@H]3CC[C@@]21C [Norethindrone] | 1.06 |
| CO[C@@]1(NC(=O)C(C(=O)O)c2ccc(O)cc2)C(=O)N2C(C(=O)O)=C(CSc3nnnn3C)CO[C@@H]21 (stereo not given in full) [Moxalactam disodium salt] | 0.981 |
| CCCCCCCCCCCCCCCC[N+](C)(C)CCN(Cc1ccc(OC)cc1)c1ncccn1 [Thonzonium bromide] | 0.0576 |
| CCN(CC)CCCC(C)Nc1c2ccc(Cl)cc2nc2ccc(OC)cc12 (stereo not given) [Quinacrine dihydrochloride dihydrate] | 0.465 |
| CC(=O)N1CCN(c2ccc(OCC3COC(Cn4ccnc4)(c4ccc(Cl)cc4Cl)O3)cc2)CC1 (stereo not given) [Ketoconazole] | 1 |
| C#C[C@]1(O)CC[C@H]2[C@@H]3CCc4cc(OC)ccc4[C@H]3CC[C@@]21C [Ethynylestradiol 3-methyl ether] | 0.982 |
| CC(C)NCC(O)c1ccc(NS(C)(=O)=O)cc1 (stereo not given) [Sotalol hydrochloride] | 1.06 |
| CCOC(=O)Nc1ccc2c(c1)N(C(=O)CCN1CCOCC1)c1ccccc1S2 [Moricizine hydrochloride] | 0.951 |

The results go on:

| Structure (SMILES) | % Pdx1+ Ins1+ |
| --- | --- |
| Cc1ccc(/C(=C\CN2CCCC2)c2ccccn2)cc1 [Triprolidine hydrochloride] | 1.15 |
| CC(C)(O/N=C(\C(=O)N[C@@H]1C(=O)N2C(C(=O)[O-])=C(C[n+]3ccccc3)CS[C@H]12)c1csc(N)n1)C(=O)O [Ceftazidime pentahydrate] | 0.899 |
| O=C1C=CC(=O)c2c1ccc1c2ccc2ccccc21 [Chrysene-1,4-quinone] | 0.946 |
| CN1CCN(C(c2ccccc2)c2ccc(Cl)cc2)CC1 (stereo not given) [(1-[(4-Chlorophenyl)phenyl-methyl]-4-methylpiperazine)] | 0.813 |
| O=C(N/N=C/c1ccc([N+](=O)[O-])o1)c1ccc(O)cc1 [Nifuroxazide] | 0.316 |
| CN(N=O)C(=O)N[C@@H](C=O)[C@@H](O)[C@H](O)[C@H](O)CO [Streptozotocin] | 0.861 |
| CCC(=O)[C@@]1(C)[C@H](C)C[C@H]2[C@@H]3CCC4=CC(=O)C=C[C@]4(C)[C@H]3[C@@H](O)C[C@@]21C [Rimexolone] | 0.869 |
| CCc1cc(C(N)=S)ccn1 [Ethionamide] | 0.96 |
| CC[C@]12CCCN3CCc4c(n(c5ccccc45)C(=O)C1)[C@@H]32 [Eburnamonine (-)] | 0.838 |
| C[C@]12C=CC(=O)C=C1CC[C@@H]1[C@@H]2C(=O)C[C@@]2(C)[C@H]1CC[C@]2(O)C(=O)CO [Prednisone] | 1.09 |
| CNC(=C[N+](=O)[O-])NCCSCc1csc(CN(C)C)n1 [Nizatidine] | 0.971 |
| CCn1cc(C(=O)O)c(=O)c2cc(F)c(N3CCNC(C)C3)c(F)c21 (stereo not given) [Lomefloxacin hydrochloride] | 1.07 |
| COc1cc(C)nc(-n2nc(C)cc2OC)n1 [Epirizole] | 1.16 |
| CS(=O)(=O)Nc1ccc([N+](=O)[O-])cc1Oc1ccccc1 [Nimesulide] | 1.04 |
| CNNCc1ccc(C(=O)NC(C)C)cc1 [Procarbazine hydrochloride] | 0.904 |
| C[N+]1(C)CCC(=C(c2ccccc2)c2ccccc2)CC1 [Diphemanil methylsulfate] | 1.01 |
| NS(=O)(=O)c1cc2c(cc1Cl)NCNS2(=O)=O [Hydrochlorothiazide] | 1 |
| CN(C)CCC=C1c2ccccc2C=Cc2ccccc21 [Cyclobenzaprine hydrochloride] | 0.903 |
| C[n+]1cccc(C(=O)[O-])c1 [Trigonelline] | 0.848 |
| C[C@@H]1C(=O)O[C@H]2C[C@@]34[C@H]5C[C@@H](C(C)(C)C)[C@]36[C@@H](OC(=O)[C@@H]6O)O[C@@]4(C(=O)O5)[C@]21O [Ginkgolide A] | 0.967 |
| CC(=O)Oc1cc(C(C)C)c(OCCN(C)C)cc1C [Moxisylyte hydrochoride] | 0.996 |
| CC(=O)OCC(=O)[C@@]1(O)CC[C@H]2[C@@H]3CCC4=CC(=O)C=C[C@]4(C)[C@@]3(F)[C@@H](O)C[C@@]21C [Isoflupredone acetate] | 1 |
